PubChem BioAssay AID1159584 | Peter MacCallum Cancer Centre, 2016

Purpose: 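Knock-downs that harm CDH1-null cells more than parental MCF10A cells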 (primary screen)
Cell system: human MCF10A breast epithelial cells, parental and CDH1-null
Reagents: siRNA against human genes
Measured: 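ATP luminescence (CellTiter-Glo) viability per line relative to mean mock wells over all plates, and the ratio of CDH1-null to parental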
Direction: CDH1-null / parental viability ratio: higher = CDH1-null cells survive relatively better than parental; CDH1-null viability vs mock: higher = more viable CDH1-null cells
The deposit covers about 18,000 reagents; this is an unselected part. Further read-outs or replicates are left out here. No sequences are given here. Not stated in the record: the amount of reagent, the time to read-out.

ASAH1 (N-acylsphingosine amidohydrolase 1) scored CDH1-null / parental viability ratio 1.35; CDH1-null viability vs mock (fraction of mock) = 0.66.
With knock-down of DTNA (dystrobrevin alpha), the screen gave CDH1-null / parental viability ratio 1.59; CDH1-null viability vs mock (fraction of mock) = 0.7.
For YY1AP1 (YY1 associated protein 1), the entry reads CDH1-null / parental viability ratio 0.88; CDH1-null viability vs mock (fraction of mock) = 0.91.
For PREB (prolactin regulatory element binding), the entry reads CDH1-null / parental viability ratio 1.04; CDH1-null viability vs mock (fraction of mock) = 0.94.
With knock-down of PTPRD (protein tyrosine phosphatase receptor type D), the record shows CDH1-null / parental viability ratio 1.45; CDH1-null viability vs mock (fraction of mock) = 0.94.
APPBP2 (amyloid beta precursor protein binding protein 2) showed CDH1-null / parental viability ratio 0.94; CDH1-null viability vs mock (fraction of mock) = 0.64.
ST18 (ST18 C2H2C-type zinc finger transcription factor) scored CDH1-null / parental viability ratio 1.14; CDH1-null viability vs mock (fraction of mock) = 1.03.
After knock-down of RFPL4AL1 (ret finger protein like 4A like 1), the record shows CDH1-null / parental viability ratio 0.87; CDH1-null viability vs mock (fraction of mock) = 0.46.
Knock-down of F8A1 (coagulation factor VIII associated 1) resulted in: CDH1-null / parental viability ratio 0.99; CDH1-null viability vs mock (fraction of mock) = 0.75.
RHOT2 (ras homolog family member T2) gave CDH1-null / parental viability ratio 1.02; CDH1-null viability vs mock (fraction of mock) = 0.9.
After knock-down of MLXIP (MLX interacting protein), the screen gave CDH1-null / parental viability ratio 0.91; CDH1-null viability vs mock (fraction of mock) = 0.96.
After knock-down of PDCD1LG2 (programmed cell death 1 ligand 2), the screen gave CDH1-null / parental viability ratio 0.96; CDH1-null viability vs mock (fraction of mock) = 0.5.
After knock-down of PRODH2 (proline dehydrogenase 2) the results were CDH1-null / parental viability ratio 1.06; CDH1-null viability vs mock (fraction of mock) = 0.92.
DEFB134 (defensin beta 134) showed CDH1-null / parental viability ratio 0.96; CDH1-null viability vs mock (fraction of mock) = 0.94.
ZNF442 (zinc finger protein 442) showed CDH1-null / parental viability ratio 0.99; CDH1-null viability vs mock (fraction of mock) = 0.81.
NT5E (5'-nucleotidase ecto) showed CDH1-null / parental viability ratio 1.34; CDH1-null viability vs mock (fraction of mock) = 0.79.
GLDC (glycine decarboxylase) showed CDH1-null / parental viability ratio 1.01; CDH1-null viability vs mock (fraction of mock) = 0.8.
Silencing of RIOK3 (RIO kinase 3) resulted in: CDH1-null / parental viability ratio 0.64; CDH1-null viability vs mock (fraction of mock) = 0.74.
Knock-down of ZNFX1 (zinc finger NFX1-type containing 1) gave: CDH1-null / parental viability ratio 0.95; CDH1-null viability vs mock (fraction of mock) = 0.84.
PPIP5K1 (diphosphoinositol pentakisphosphate kinase 1) scored CDH1-null / parental viability ratio 1.4; CDH1-null viability vs mock (fraction of mock) = 0.84.
Depletion of C8orf44 (chromosome 8 putative open reading frame 44) gave: CDH1-null / parental viability ratio 1.31; CDH1-null viability vs mock (fraction of mock) = 0.88.
Knock-down of ADAMTS1 (ADAM metallopeptidase with thrombospondin type 1 motif 1) gave: CDH1-null / parental viability ratio 1.24; CDH1-null viability vs mock (fraction of mock) = 0.52.
Against UACA the deposit lists CDH1-null / parental viability ratio 1.12; CDH1-null viability vs mock (fraction of mock) = 1.12.
With knock-down of NAA30 (N-alpha-acetyltransferase 30, NatC catalytic subunit), the record shows CDH1-null / parental viability ratio 0.77; CDH1-null viability vs mock (fraction of mock) = 0.43.
With knock-down of ZNF706 (zinc finger protein 706), the record shows CDH1-null / parental viability ratio 0.75; CDH1-null viability vs mock (fraction of mock) = 0.44.
With knock-down of SPEN (spen family transcriptional repressor) the results were CDH1-null / parental viability ratio 1.47; CDH1-null viability vs mock (fraction of mock) = 0.88.
Depletion of CASP6 (caspase 6) resulted in: CDH1-null / parental viability ratio 1.12; CDH1-null viability vs mock (fraction of mock) = 0.96.
With knock-down of PYROXD1 (pyridine nucleotide-disulphide oxidoreductase domain 1) the results were CDH1-null / parental viability ratio 1.23; CDH1-null viability vs mock (fraction of mock) = 1.08.
Depletion of TPX2 (TPX2 microtubule nucleation factor) resulted in: CDH1-null / parental viability ratio 0.75; CDH1-null viability vs mock (fraction of mock) = 0.24.
RBM4 (RNA binding motif protein 4) scored CDH1-null / parental viability ratio 0.8; CDH1-null viability vs mock (fraction of mock) = 0.48.
Silencing of SACK1C (scaffolding CK1 anchoring protein C) gave: CDH1-null / parental viability ratio 0.94; CDH1-null viability vs mock (fraction of mock) = 0.88.
MAU2 scored CDH1-null / parental viability ratio 1.02; CDH1-null viability vs mock (fraction of mock) = 0.59.
TMT1B (thiol methyltransferase 1B) scored CDH1-null / parental viability ratio 0.99; CDH1-null viability vs mock (fraction of mock) = 0.9.
Silencing of ARMC10 (armadillo repeat containing 10) gave: CDH1-null / parental viability ratio 0.95; CDH1-null viability vs mock (fraction of mock) = 0.9.
After knock-down of PAX9 (paired box 9), the screen gave CDH1-null / parental viability ratio 1.13; CDH1-null viability vs mock (fraction of mock) = 0.51.
